Experimental data taken from patent US20220152100A1, “METHODS FOR CONTROLLED ACTIVATION OR ELIMINATION OF THERAPEUTIC CELLS” (Bellicum Pharmaceuticals, Inc., priority 2014, published 2022).

Tested on: HEK293T/16 cells
Assay: Western blot of Caspase-9 variants in transfected HEK293T/16 cells
Format: cell-based, human

B1: N405Q: chimeric modified Caspase-9 polypeptide, SEQ ID NO: 26 (protein)
chain: GFGDVGALESLRGNADLAYILSMEPCGHCLIINNVNFCRESGLRTRTGSNIDCEKLRRRFSSLHFMVEVKGDLTAKKMVLALLELARQDHGALDCCVVVILSHGCQASHLQFPGAVYGTDGCPVSVEKIVNIFNGTSCPSLGGKPKLFFIQACGGEQKDHGFEVASTSPEDESPGSNPEPDATPFQEGLRTFDQLDAISSLPTPSDIFVSYSTFPGFVSWRDPKSGSWYVETLDDIFEQWAHSEDLQSLLLRVANAVSVKGIYKQMPGCFQFLRKKLFFKTS
- protein expression level: appeared darker than the others
